{
  "sequences": {"note": "By UniProt entry, the sequences of proteins in these tests, tags left out. Where a name states a change or a piece, a line headed by the entry shows the natural chain unless it says otherwise.", "UniProt P05740": "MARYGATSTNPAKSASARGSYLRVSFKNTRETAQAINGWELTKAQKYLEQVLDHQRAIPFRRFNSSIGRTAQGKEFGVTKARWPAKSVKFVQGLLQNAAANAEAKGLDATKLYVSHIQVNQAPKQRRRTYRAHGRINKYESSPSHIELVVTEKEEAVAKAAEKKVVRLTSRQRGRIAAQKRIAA"},
  "source": "paper PMC9507969",
  "molecular_target": "ribosomal protein L17 (S. cerevisiae (endogenous in the yeast strain)) (UniProt P05740)",
  "assay": "cross-linking; pre-60S particles purified via Arx1-TAP from drg1-18 (TEV eluate) incubated with 150 µg purified Drg1 and 1 mM ATPγS, cross-linked with 1.5 mM DSS or BS3 (isotopically labeled), 30 minutes, 30 °C; LC-MS/MS, xQuest/xProphet; both purified",
  "note": "Results are given in words; binding and its absence hold for the method and conditions named. A result given as binding can be weak or reduced; the word gives no strength.",
  "data": [
    {"binder": "Drg1 (diazaborine resistance gene 1), wild type, purified (enzyme, UniProt P32794 1-780) MAPKSSSSGSKKKSSASSNSADAKASKFKLPAEFITRPHPSKDHGKETCTAYIHPNVLSSLEINPGSFCTVGKIGENGILVIARAGDEEVHPVNVITLSTTIRSVGNLILGDRLELKKAQVQPPYATKVTVGSLQGYNILECMEEKVIQKLLDDSGVIMPGMIFQNLKTKAGDESIDVVITDASDDSLPDVSQLDLNMDDMYGGLDNLFYLSPPFIFRKGSTHITFSKETQANRKYNLPEPLSYAAVGGLDKEIESLKSAIEIPLHQPTLFSSFGVSPPRGILLHGPPGTGKTMLLRVVANTSNAHVLTINGPSIVSKYLGETEAALRDIFNEARKYQPSIIFIDEIDSIAPNRANDDSGEVESRVVATLLTLMDGMGAAGKVVVIAATNRPNSVDPALRRPGRFDQEVEIGIPDVDARFDILTKQFSRMSSDRHVLDSEAIKYIASKTHGYVGADLTALCRESVMKTIQRGLGTDANIDKFSLKVTLKDVESAMVDIRPSAMREIFLEMPKVYWSDIGGQEELKTKMKEMIQLPLEASETFARLGISAPKGVLLYGPPGCSKTLTAKALATESGINFLAVKGPEIFNKYVGESERAIREIFRKARSAAPSIIFFDEIDALSPDRDGSSTSAANHVLTSLLNEIDGVEELKGVVIVAATNRPDEIDAALLRPGRLDRHIYVGPPDVNARLEILKKCTKKFNTEESGVDLHELADRTEGYSGAEVVLLCQEAGLAAIMEDLDVAKVELRHFEKAFKGIARGITPEMLSYYEEFALRSGSSS", "values": [
      {"measurement": "binding", "value": "binds"}
    ]}
  ]
}
